These are yes or no findings as the source states them, for the method shown. In cells and extracts the contact can be indirect. Some results given as binding are weak or reduced against the parent protein; the word gives no strength.
Molecular target: T1, Dishevelled-1 (DVL-1) (human (endogenous in MDA-MB-231 and MDA-MB-468)) (UniProt O14640)
T1 sequence: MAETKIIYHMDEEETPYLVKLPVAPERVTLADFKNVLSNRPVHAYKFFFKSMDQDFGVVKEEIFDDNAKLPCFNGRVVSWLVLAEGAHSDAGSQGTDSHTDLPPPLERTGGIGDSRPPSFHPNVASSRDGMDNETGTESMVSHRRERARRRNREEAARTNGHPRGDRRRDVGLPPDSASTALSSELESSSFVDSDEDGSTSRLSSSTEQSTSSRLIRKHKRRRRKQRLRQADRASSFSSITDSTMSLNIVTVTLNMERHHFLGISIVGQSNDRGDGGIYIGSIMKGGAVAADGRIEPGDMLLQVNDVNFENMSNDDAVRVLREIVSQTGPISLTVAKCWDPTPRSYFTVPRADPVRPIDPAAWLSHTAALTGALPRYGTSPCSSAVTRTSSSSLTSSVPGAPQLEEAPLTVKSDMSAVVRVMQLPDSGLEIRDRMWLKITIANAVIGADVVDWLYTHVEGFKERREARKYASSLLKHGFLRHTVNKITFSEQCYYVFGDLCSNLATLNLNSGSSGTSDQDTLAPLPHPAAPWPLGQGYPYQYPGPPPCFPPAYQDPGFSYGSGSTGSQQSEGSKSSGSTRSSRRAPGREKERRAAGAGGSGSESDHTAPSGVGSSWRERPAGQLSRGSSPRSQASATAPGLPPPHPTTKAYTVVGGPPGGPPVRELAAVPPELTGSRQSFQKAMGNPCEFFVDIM
Assay: co-IP; endogenous DVL-1 precipitated from MDA-MB-231 and MDA-MB-468 cell extracts with 2 ug DVL-1 antibody (D3570; Sigma), 2 hrs/4 °C, Protein A Dynabeads; NP-40 lysis buffer; species-matched IgG as negative control; Western blotting for SIRT-1 and HDAC1

The chains behind the UniProt entries cited, without tags or fusion partners.
UniProt Q13547: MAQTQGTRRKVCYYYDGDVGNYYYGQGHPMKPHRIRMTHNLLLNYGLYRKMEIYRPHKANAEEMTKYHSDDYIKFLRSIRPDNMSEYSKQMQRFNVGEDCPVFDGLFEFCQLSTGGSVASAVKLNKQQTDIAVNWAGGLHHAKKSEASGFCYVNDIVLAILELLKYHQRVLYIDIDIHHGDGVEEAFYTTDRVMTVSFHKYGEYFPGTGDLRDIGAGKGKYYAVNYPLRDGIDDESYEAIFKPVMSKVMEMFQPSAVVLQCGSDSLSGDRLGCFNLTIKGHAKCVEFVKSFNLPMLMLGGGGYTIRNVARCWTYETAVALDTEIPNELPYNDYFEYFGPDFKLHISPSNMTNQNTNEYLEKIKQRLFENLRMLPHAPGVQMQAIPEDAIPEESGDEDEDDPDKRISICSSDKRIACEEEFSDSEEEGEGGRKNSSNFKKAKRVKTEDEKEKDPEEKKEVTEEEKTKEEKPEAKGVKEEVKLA

binding: binds
Substance: HDAC1 (from UniProt Q13547 1-482) (enzyme)
